Measured values published in PMC6572760.
These are yes or no findings as the source states them, for the method shown. In cells and extracts the contact can be indirect. A yes stands for co-enrichment or nearness to the bait. Other partners may have been found. Sequences can lack the tags named with a protein.

Sequences of proteins named here, by UniProt entry; tags and fusion partners are left off.
UniProt Q06681: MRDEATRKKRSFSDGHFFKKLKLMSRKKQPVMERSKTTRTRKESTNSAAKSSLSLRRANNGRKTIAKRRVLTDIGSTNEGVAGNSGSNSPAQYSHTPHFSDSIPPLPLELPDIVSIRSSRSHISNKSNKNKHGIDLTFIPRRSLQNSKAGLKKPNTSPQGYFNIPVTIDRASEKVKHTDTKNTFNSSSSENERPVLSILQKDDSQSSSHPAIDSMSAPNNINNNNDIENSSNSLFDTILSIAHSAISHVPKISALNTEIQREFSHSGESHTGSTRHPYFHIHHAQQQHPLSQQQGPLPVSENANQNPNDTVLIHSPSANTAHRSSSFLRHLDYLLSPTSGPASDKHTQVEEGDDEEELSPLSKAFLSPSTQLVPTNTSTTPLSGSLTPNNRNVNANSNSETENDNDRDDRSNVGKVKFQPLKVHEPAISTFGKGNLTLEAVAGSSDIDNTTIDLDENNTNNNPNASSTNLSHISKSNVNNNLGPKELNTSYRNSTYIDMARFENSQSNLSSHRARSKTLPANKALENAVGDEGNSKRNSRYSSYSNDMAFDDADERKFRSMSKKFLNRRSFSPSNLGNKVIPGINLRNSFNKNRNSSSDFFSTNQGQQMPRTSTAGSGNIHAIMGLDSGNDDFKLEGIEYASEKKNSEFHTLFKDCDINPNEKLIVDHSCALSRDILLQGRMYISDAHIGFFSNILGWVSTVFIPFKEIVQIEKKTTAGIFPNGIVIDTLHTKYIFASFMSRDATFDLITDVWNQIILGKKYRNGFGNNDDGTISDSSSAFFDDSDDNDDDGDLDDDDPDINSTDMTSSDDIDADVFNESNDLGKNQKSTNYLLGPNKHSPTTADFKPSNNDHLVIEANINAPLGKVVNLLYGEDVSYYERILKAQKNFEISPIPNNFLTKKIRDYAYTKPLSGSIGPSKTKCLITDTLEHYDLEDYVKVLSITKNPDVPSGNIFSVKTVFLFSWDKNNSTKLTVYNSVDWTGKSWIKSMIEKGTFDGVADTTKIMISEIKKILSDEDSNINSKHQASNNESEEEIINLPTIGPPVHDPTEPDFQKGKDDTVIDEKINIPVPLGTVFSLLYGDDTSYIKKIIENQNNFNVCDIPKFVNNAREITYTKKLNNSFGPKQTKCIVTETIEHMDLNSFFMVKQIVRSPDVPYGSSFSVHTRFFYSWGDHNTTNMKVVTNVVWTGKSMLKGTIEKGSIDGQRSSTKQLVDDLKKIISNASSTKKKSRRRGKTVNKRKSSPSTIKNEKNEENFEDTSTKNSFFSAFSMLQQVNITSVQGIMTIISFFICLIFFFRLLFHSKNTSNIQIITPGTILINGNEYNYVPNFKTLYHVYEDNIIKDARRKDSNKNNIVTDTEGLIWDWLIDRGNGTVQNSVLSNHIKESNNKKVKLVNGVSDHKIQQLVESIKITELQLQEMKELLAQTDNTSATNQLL
UniProt P32499: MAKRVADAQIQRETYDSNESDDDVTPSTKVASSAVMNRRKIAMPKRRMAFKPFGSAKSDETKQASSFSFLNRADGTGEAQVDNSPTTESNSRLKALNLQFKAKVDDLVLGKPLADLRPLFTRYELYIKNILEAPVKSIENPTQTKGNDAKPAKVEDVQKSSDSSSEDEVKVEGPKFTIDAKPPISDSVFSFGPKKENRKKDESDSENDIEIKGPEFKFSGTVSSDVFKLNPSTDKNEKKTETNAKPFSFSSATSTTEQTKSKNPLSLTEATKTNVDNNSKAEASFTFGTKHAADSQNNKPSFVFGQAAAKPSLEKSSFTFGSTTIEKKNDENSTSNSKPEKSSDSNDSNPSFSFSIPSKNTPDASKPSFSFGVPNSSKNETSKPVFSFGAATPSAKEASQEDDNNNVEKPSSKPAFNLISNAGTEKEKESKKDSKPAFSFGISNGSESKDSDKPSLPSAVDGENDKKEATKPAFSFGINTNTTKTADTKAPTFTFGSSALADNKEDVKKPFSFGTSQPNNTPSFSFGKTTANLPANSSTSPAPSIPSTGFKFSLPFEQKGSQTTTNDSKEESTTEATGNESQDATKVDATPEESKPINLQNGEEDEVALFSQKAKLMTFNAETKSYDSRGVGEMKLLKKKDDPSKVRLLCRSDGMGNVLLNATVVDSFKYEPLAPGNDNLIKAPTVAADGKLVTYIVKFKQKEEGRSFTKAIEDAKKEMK
UniProt P10961: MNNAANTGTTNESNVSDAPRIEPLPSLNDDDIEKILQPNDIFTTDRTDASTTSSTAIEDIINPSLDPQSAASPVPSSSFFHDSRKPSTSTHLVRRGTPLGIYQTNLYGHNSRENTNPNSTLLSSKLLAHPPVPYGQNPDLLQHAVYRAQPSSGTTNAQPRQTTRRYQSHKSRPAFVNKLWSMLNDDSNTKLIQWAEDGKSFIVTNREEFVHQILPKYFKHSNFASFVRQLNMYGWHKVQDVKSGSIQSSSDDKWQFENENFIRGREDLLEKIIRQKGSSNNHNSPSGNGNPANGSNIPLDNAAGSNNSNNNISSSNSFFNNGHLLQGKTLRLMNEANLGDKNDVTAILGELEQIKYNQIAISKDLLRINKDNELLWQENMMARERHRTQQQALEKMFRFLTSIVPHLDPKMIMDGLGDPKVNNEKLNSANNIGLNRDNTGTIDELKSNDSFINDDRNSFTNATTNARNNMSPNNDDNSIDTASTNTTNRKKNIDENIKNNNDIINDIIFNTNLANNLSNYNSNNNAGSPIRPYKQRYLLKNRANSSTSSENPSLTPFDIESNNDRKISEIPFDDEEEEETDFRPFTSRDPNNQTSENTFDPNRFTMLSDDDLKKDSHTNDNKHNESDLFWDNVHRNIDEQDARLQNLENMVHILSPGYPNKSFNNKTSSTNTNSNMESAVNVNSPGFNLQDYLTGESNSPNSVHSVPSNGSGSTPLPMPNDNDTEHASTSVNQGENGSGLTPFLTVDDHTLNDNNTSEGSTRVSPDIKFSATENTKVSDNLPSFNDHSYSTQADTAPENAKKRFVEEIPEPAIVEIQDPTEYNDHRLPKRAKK

Tests used:
Experiment in all cases: proximity labelling; M-track protein-protein proximity assay in living yeast: bait fused to HKMTmyc tri-methylates the H3 moiety of Hog1-protA-H3 on close proximity; cells treated with 1 M sorbitol for 40 min (unstressed cells also tested); me3K9H3 over HA signal by Western blot of urea extracts, compared with a strain expressing only Hog1-protA-H3
[1] = target: Ysp2-HKMTmyc (C-terminal fusion) (S. cerevisiae) (UniProt Q06681)
[2] = target: Nup2-HKMT (S. cerevisiae) (UniProt P32499)
[3] = target: T1, Orm2-HKMTmyc (S. cerevisiae) (UniProt Q06144)
T1 sequence: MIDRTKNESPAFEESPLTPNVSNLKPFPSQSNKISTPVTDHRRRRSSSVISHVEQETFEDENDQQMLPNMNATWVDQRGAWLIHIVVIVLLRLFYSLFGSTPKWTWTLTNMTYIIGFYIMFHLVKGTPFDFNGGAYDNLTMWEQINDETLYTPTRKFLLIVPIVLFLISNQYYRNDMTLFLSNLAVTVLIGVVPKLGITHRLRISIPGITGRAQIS

[4] = target: MYC-HKMT-GL-Ysp2 (N-terminal fusion) (S. cerevisiae) (UniProt Q06681)
[5] = target: T2, Psp2-HKMTmyc (S. cerevisiae) (UniProt P50109)
T2 sequence: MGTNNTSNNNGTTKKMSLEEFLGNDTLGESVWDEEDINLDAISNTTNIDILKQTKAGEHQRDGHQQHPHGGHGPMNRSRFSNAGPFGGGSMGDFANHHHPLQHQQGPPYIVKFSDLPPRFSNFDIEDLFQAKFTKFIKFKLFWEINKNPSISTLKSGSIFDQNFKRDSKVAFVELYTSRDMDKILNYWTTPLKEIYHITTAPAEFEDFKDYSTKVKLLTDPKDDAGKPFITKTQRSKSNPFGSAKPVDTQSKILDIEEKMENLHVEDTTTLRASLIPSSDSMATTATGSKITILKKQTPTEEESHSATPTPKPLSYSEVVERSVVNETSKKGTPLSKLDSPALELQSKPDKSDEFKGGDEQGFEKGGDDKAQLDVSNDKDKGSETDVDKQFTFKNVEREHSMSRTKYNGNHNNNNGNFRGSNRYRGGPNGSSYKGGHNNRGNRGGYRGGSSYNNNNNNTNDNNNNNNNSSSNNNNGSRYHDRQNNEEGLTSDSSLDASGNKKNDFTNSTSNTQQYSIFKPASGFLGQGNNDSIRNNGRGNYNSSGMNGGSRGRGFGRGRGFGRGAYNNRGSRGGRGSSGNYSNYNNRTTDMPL

[6] = target: Hsf1-HKMTmyc (S. cerevisiae) (UniProt P10961)
[7] = target: T3, Kic1-HKMTmyc (S. cerevisiae) (UniProt P38692)
T3 sequence: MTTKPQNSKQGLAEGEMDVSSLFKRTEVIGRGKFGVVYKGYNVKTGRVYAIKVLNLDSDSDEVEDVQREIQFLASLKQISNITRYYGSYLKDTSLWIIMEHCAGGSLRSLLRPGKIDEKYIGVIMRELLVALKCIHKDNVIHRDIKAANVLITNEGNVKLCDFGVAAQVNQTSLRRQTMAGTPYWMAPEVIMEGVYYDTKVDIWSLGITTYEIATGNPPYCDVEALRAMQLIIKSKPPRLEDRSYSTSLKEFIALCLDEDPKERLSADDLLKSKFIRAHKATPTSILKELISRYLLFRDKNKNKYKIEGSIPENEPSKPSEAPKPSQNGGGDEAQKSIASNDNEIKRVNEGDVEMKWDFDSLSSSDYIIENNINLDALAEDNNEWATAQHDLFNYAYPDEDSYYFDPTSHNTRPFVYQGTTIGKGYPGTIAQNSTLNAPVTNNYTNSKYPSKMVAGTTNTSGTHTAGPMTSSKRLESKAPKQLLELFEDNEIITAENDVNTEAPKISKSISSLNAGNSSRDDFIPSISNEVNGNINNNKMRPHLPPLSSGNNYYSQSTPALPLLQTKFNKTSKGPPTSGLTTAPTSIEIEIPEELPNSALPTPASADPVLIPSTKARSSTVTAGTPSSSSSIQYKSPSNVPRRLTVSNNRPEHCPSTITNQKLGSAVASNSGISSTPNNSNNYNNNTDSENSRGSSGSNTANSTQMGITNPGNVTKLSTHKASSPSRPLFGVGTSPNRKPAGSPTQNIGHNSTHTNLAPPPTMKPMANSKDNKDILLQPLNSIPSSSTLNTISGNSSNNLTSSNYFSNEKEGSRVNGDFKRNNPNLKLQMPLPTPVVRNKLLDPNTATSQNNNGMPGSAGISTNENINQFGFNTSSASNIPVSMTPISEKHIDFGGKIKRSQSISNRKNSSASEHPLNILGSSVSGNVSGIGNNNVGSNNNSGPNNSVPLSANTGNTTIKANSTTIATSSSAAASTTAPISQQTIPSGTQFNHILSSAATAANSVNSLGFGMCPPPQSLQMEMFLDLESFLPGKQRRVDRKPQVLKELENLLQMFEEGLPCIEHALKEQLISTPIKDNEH

- binding [1]: binds
- binding [2]: binds
- binding [3]: binds
- binding [4]: binds
- binding [5]: binds
- binding [6]: binds
- binding [7]: binds
B1: Hog1-TEV-ProteinA-Histone3-HA (enzyme, UniProt P32485 1-435)
chain: MTTNEEFIRTQIFGTVFEITNRYNDLNPVGMGAFGLVCSATDTLTSQPVAIKKIMKPFSTAVLAKRTYRELKLLKHLRHENLICLQDIFLSPLEDIYFVTELQGTDLHRLLQTRPLEKQFVQYFLYQILRGLKYVHSAGVIHRDLKPSNILINENCDLKICDFGLARIQDPQMTGYVSTRYYRAPEIMLTWQKYDVEVDIWSAGCIFAEMIEGKPLFPGKDHVHQFSIITDLLGSPPKDVINTICSENTLKFVTSLPHRDPIPFSERFKTVEPDAVDLLEKMLVFDPKKRITAADALAHPYSAPYHDPTDEPVADAKFDWHFNDADLPVDTWRVMMYSEILDFHKIGGSDGQIDISATFDDQVAAATAAAAQAQAQAQAQVQLNMAAHSHNGAGTTGNDHSDIAGGNKVSDHVAANDTITDYGNQAIQYANEFQQ
